Where two headings read alike, the source gives them in different places. Results are given in words; binding and its absence hold for the method and conditions named. For part of these data: Binding seen in cells or lysates may run through a third protein. Some entries that bind do so weakly or less than the wild type. For part of these data: Where a sequence is shown, tags or fusion partners need not be part of it.
Columns and labels:
CFP-1::GFP (C. elegans) = target: T1, CFP-1::GFP (C. elegans) (UniProt Q9XUE7); test: co-IP; CFP-1::GFP precipitated with GFP-TRAP MA beads from C. elegans embryo total protein extract (4-5 mg); IP buffer 50 mM HEPES/KOH pH 7.5, 300 mM KCl, 0.2% Igepal-CA630; benzonase treatment; western blot; control from wild type without transgene; CFP-1/SIN-3 also from young adults; HDA-1 and MRG-1 also from sin-3(tm1276) mutant extracts
T1 sequence: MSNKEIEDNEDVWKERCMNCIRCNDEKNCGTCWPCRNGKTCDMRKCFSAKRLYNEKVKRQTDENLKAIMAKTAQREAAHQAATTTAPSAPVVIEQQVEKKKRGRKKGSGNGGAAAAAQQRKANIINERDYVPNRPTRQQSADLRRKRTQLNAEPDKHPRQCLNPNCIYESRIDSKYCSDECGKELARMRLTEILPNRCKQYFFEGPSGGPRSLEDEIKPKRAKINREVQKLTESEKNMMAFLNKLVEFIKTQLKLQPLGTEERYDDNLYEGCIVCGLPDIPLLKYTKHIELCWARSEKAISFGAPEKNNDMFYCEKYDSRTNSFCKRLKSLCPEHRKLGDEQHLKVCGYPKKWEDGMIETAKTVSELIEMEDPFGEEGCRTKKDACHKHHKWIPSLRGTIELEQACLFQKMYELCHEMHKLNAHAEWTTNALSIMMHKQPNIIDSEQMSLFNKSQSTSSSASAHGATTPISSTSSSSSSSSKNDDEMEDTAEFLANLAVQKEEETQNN

Amino acid sequences for entries named in this document (tags omitted).
UniProt Q17963: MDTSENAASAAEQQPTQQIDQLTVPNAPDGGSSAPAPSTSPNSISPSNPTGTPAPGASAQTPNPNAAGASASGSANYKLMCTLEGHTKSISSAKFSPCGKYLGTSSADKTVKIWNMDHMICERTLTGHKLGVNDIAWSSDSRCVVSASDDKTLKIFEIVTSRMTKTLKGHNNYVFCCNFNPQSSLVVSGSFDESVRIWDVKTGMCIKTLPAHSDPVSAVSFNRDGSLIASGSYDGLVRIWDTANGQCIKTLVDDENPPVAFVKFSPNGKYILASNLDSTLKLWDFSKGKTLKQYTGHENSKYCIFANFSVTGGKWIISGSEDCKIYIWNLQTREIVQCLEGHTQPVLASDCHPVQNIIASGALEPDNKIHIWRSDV
UniProt O17695: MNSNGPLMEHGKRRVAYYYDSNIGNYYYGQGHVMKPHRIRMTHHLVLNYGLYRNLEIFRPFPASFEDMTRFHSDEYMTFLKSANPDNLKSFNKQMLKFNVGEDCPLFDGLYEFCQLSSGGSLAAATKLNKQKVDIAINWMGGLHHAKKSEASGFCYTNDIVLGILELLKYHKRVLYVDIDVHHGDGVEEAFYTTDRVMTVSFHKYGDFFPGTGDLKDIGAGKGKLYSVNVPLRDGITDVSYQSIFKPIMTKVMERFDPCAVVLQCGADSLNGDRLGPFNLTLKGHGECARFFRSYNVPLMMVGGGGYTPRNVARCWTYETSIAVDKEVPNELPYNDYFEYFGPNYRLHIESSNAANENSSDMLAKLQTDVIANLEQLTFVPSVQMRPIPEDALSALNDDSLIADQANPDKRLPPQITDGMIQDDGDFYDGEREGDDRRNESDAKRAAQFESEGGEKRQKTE

HA::WDR-5.1 (C. elegans) [1] = target: HA::WDR-5.1 (C. elegans) (UniProt Q17963); test: co-IP; HA::WDR-5.1 precipitated with anti-HA affinity matrix from C. elegans embryo extract, benzonase treatment, eluted with HA peptide; western blot; control from wild type without transgene
HA::WDR-5.1 (C. elegans) [2] = target: HA::WDR-5.1 (C. elegans) (UniProt Q17963); test: as above; remark: listed apart in the source
[3] = target: SIN-3 full length, yeast two-hybrid fusion (C. elegans) (UniProt A5JYW9); test: two-hybrid; LexA (BD)/B42 (AD) system, cross-mating of EGY42a (BD + pSH18-34 reporter) and TB50alpha (AD) yeast, beta-galactosidase (X-Gal) staining after 48 h at 25°C; each hetero-interaction tested in both directions
[4] = target: CFP-1 full length, yeast two-hybrid fusion (C. elegans) (UniProt Q9XUE7); test: as above
[5] = target: MRG-1 full length, yeast two-hybrid fusion (C. elegans) (UniProt A7DTF0); test: as above
[6] = target: T2, Full-length GST::CFP-1 (C. elegans) (UniProt Q9XUE7); test: pull-down; GST::CFP-1 bacterial supernatant mixed with HIS6::SIN-3 fragment supernatant overnight at 4°C; GST purification; lysis buffer 50 mM Tris pH 8.0, 300 mM NaCl; eluted with 20 mM glutathione; western blot with anti-histidine antibody
T2 sequence: T1 sequence

## HA::WDR-5.1 (from UniProt Q17963 1-376)
CFP-1::GFP (C. elegans)
  binding: binds

## SIN-3 (from UniProt A5JYW9 1-1507)
CFP-1::GFP (C. elegans)
  binding: binds

## HDA-1 (from UniProt O17695 1-461)
CFP-1::GFP (C. elegans)
  binding: binds
HA::WDR-5.1 (C. elegans) [1]
  binding: binds

B1: ASH-2 (protein, UniProt G5EFZ3 1-570)
chain: MRSSKGGRGRQAAPKTAPTTVCYCDGKRELGSVEVVCSTCLKWFHGRCLKEFHELNSNGVPFMICYTFTCKQCRPTAEDWKAKKADLVQMCVTVLATLSAERLKADGKLSAEHVPEDFTYLSLKDEIVPYMNENWYMLTAIKQKKEWHQNLAPTLLKEKNIFVQHNDDDDLFALAEKNLSLLGPLHEAVKLIGKRPIERENREPRHIELPPIEGPKTRGASKRRHAEAPVTGKKQKLAADYSSTAAPNGVQIDIPFSKDNYRYYLTEVDPNVPEDPAWNQNQSSAYVIPSFHYRELLNPTVNVSSNDRAFQLSINGNSITGFEGYSMARASHGVSKGTWYFEVNFDDQPDDSHIRIGWSQSYASLQACVGYNKFSYGWRSKHGTKFHEAKGKKYHFGGFKQGDVLGCLIHLPVDKKLQIPANLPSEKYLPVSHKGFNLISFKANYFFEVQEESADIAKTLVEMPGSYIEFFHNGKSCGKAYENIYAGAYYPSISIFKSATATMNLGPKFRNLPRGATGIHARADEQQHEQTLSDMLYLVSKEVNLDHPPRVKREDDDDVKDIKKEIKQEI
HA::WDR-5.1 (C. elegans) [2]
  binding: binds
CFP-1::GFP (C. elegans)
  binding: binds

B2: MRG-1 (protein, UniProt A7DTF0 1-337)
chain: MSSKKNFEVGENVACIYKGKPYDAKITDIKTNSDGKELYCVHFKGWNNRYDEKIPVGEEKDRIFKGTASEYAEKHNAELPTTALKPKKKSLAAEAPRDDRDDTPGTSKGKKAKSVTIAPVMTADDMKVELPKPLRKILIDDYDLVCRYFINIVPHEYSVDQIIEDYIKTIPVSNEQMRTVDDLLIEYEEADIKITNLALICTARGLVDYFNVTLGSSYQLLYKFERPQYNDLVKKRAMEKGIDITNPTALQDSGFRPSQEYGIVHFLRMLAKLPDYLKLTQWNDHVINRIMIGVHDLIVFLNKNHGKYYRGSSDYQGASNDYYRRSLAADDGVGANQ
CFP-1::GFP (C. elegans)
  binding: binds

B3: CFP-1 full length, yeast two-hybrid fusion (protein, UniProt Q9XUE7 1-508)
chain: T1 sequence
[3]
  binding: binds
[4]
  binding: binds

B4: MRG-1 full length, yeast two-hybrid fusion (protein, UniProt A7DTF0 1-337)
chain: B2 chain
[5]
  binding: binds

B5: HIS6::SIN-3[1–738] (domain or fragment, UniProt A5JYW9 1-738)
chain: MYNPPPGGGGGNNGGDQSQQQPTNNATLFLLQMIQQSQHQQQHQNQQQQQLELQIRDQERILIEQQRMQHQQQQNQLLQGLNQFPFNPLGLFQVQAAVQAAQAQFAQNAQGSPIPFHIGSPLQPSHSPAASALQQQYLLPSHSPAITPFARNSEAARNIEQFIAQEEAANVPRANSQQQSPLIRPIPQQQALNIQNLTSTQQAQQILAHHRQVPVQQVQHQQHIPTPPLALPIAQQGPISNEVPSVPPVVPATSAGCPQREPRQQQGGRRQNRPGRRKKPEGPPRVDEALAYLRVIKSTFSSDVPVYHRFLEIMKDFRAQRIETPDVIEQVAELLYDSPELVLGFNTFLPTGYRITLTPDRKYVFSSPQMQPRVLLSPDERRARAIEAGAQAVGAIELGSQEGISKDEDRTIEDEDMDKSKEKDDVDGIDDEDDEESGIEDKNNEEMMEEDNHLIEEIICDDRKKDDCEDSQQEIEMSSELAAHTLNIIELLKKSFLARPTKLVDFMTFIDFFMSDQQYKKDMEKLRKDDEDDEIEENEKIEVDDVPGPSNAPQEIKKPDDIEKKDSSKNLQIEESCSDYLVSMLANCCIGEPDLLAATIDFLPYLGKLLVNGSDAIALKIKTILHFSATNDRNDIPPVNRVNPSDVDMDLVKQMEKCKMGTKKNEKLKLKVAGQGDEGATVELMILKKSYRILYERLKSRTTPNQLSHLMVLINAYANLDITREQLISELPKIMGTS
[6]
  binding: binds

B6: CFP-1::GFP (protein, UniProt Q9XUE7 1-508)
chain: T1 sequence
HA::WDR-5.1 (C. elegans) [2]
  binding: binds
